# The supplement of paper PMC12067093, “Discovery and optimisation of a covalent ligand for TRIM25 and its application to targeted protein ubiquitination” (Chemical Science, 2025)
# Chains of the proteins cited; added tags and fusions are not shown. Lines headed by an entry give the natural chain unless they say otherwise; changes in a name come on top.
# UniProt Q6PJT7: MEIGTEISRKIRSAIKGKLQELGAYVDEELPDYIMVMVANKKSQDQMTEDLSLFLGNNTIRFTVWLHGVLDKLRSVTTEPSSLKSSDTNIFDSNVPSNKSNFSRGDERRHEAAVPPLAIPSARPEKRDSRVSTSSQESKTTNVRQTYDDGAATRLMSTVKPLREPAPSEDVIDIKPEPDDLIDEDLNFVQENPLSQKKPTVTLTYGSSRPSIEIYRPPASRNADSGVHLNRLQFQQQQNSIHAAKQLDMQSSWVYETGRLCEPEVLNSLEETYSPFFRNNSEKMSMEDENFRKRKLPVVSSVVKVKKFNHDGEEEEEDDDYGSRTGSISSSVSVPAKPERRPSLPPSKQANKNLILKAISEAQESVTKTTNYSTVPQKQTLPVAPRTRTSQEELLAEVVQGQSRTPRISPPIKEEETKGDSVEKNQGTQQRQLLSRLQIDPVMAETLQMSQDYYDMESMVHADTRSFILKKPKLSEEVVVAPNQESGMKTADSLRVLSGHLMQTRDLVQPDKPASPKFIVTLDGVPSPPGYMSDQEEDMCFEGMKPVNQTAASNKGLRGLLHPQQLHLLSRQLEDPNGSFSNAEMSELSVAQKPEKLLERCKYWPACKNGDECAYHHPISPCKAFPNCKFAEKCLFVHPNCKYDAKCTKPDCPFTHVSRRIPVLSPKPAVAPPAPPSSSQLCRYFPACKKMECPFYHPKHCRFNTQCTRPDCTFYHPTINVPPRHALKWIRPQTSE
# UniProt Q9UGR2: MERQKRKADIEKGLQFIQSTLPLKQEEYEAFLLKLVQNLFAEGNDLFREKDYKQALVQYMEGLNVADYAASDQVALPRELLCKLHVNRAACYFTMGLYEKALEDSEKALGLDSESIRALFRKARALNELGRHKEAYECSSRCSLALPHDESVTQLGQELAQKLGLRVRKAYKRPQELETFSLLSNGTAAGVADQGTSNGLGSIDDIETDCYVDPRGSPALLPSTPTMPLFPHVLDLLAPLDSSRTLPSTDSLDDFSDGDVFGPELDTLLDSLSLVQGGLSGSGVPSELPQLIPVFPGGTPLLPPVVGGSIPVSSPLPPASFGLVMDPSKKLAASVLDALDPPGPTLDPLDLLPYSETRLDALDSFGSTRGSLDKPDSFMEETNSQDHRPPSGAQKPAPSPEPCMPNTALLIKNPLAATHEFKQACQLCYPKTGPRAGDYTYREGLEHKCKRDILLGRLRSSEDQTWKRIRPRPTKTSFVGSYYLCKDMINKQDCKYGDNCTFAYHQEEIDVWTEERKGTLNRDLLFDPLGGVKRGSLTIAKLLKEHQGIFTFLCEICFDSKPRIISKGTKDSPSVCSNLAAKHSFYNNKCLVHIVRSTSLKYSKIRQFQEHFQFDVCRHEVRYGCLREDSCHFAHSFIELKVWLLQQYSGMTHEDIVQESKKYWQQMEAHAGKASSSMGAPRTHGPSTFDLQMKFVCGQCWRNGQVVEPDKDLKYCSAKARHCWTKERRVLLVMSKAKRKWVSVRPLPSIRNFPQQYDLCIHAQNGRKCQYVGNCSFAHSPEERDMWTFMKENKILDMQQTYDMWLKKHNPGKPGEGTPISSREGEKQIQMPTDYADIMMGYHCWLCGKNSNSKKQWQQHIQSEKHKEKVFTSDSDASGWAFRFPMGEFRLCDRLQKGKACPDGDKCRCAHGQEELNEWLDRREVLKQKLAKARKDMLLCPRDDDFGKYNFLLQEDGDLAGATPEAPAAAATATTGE
# UniProt Q9UIA9: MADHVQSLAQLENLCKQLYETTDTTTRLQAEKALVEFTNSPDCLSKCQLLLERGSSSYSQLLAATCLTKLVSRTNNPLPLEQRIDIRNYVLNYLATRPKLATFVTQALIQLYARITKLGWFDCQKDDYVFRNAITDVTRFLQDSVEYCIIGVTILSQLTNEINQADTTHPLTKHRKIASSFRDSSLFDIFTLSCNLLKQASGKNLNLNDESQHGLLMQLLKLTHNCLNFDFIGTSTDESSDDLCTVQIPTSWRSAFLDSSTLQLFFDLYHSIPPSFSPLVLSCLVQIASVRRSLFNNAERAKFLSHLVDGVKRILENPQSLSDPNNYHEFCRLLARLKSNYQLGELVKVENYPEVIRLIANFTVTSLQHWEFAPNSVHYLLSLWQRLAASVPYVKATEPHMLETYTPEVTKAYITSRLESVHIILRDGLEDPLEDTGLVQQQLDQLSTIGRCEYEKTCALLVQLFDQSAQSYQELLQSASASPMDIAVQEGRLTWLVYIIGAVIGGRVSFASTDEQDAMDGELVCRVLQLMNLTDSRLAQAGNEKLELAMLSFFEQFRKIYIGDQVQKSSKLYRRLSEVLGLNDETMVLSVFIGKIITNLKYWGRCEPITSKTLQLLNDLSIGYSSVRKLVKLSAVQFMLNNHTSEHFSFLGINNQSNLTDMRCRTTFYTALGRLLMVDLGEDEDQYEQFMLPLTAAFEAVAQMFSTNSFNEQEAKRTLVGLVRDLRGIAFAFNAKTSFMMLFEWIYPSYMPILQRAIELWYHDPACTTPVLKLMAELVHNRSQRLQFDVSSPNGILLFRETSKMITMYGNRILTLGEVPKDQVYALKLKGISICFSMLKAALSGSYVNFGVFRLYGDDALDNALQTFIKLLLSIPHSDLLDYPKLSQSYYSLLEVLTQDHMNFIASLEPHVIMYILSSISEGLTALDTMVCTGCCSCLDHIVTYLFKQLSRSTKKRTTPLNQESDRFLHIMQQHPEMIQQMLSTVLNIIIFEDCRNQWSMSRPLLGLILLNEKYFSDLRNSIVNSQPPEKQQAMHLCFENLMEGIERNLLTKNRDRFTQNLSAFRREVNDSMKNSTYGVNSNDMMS
# UniProt O75152: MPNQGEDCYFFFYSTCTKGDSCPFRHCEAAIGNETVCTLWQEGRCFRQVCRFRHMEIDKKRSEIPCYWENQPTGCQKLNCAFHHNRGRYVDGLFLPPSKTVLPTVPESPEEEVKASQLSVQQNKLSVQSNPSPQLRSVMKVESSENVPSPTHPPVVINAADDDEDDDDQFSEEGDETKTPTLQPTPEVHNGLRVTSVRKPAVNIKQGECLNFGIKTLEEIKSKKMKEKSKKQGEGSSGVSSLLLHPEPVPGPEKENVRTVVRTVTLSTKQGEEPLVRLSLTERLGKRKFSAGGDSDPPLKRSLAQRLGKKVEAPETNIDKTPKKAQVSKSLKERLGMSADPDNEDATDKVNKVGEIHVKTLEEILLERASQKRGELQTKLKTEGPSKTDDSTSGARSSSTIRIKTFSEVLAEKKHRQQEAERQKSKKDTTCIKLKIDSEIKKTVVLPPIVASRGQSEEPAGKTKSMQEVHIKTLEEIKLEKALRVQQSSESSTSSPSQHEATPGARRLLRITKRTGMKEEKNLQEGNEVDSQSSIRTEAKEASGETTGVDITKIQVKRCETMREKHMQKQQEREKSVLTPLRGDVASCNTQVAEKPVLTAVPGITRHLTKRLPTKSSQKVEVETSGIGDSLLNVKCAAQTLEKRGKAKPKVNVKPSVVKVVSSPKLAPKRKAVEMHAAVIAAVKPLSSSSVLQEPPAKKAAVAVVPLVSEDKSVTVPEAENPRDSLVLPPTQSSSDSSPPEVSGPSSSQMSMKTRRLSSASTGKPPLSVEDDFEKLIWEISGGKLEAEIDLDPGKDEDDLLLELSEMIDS
# UniProt A8MPS7: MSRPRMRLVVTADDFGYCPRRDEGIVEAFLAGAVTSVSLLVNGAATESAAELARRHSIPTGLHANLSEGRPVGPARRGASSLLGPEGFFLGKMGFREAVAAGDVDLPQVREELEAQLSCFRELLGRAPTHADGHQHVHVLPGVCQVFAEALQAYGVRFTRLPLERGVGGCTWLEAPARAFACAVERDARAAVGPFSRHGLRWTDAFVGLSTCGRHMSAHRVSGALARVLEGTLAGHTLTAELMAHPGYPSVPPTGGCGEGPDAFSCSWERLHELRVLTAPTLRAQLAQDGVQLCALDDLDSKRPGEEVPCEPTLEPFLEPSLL
# UniProt Q96H79: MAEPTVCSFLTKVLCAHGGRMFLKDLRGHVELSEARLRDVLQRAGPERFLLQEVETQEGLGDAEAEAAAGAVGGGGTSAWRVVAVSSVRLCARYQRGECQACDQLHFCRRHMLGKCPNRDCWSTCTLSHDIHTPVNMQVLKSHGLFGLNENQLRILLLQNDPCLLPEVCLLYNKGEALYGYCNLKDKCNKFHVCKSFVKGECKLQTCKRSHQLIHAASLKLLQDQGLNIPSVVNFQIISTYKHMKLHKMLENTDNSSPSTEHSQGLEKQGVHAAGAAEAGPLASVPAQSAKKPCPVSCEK
# UniProt P13010: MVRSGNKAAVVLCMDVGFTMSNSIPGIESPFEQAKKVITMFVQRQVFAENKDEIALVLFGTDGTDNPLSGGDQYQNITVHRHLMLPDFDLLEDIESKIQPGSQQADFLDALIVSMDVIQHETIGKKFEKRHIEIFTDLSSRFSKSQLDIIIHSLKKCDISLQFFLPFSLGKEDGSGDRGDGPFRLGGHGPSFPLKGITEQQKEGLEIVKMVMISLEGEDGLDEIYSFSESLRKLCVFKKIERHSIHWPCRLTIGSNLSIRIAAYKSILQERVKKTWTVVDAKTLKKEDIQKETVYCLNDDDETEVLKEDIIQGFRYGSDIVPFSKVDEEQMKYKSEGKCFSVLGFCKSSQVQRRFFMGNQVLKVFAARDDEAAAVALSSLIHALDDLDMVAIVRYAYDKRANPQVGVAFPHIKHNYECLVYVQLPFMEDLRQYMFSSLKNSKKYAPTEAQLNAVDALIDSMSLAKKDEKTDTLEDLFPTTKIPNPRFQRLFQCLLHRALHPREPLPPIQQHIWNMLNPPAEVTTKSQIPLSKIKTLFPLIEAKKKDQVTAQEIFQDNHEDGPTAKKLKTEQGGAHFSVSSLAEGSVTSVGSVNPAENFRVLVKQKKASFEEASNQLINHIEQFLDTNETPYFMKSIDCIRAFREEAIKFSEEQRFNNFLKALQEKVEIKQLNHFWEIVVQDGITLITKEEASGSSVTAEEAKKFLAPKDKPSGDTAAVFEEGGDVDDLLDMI
# UniProt P25490, whole entry, looked up: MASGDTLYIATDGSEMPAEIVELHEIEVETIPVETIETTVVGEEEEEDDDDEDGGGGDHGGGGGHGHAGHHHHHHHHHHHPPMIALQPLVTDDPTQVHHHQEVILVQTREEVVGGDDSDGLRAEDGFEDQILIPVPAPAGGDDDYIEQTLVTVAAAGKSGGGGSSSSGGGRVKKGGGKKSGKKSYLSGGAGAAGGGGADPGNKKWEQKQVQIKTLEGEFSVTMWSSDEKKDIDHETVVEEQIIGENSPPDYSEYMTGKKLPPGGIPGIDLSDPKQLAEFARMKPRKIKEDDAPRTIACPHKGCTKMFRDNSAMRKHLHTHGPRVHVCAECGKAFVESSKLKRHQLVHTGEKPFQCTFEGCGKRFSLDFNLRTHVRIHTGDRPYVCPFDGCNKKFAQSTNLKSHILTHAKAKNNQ
# UniProt A2A288: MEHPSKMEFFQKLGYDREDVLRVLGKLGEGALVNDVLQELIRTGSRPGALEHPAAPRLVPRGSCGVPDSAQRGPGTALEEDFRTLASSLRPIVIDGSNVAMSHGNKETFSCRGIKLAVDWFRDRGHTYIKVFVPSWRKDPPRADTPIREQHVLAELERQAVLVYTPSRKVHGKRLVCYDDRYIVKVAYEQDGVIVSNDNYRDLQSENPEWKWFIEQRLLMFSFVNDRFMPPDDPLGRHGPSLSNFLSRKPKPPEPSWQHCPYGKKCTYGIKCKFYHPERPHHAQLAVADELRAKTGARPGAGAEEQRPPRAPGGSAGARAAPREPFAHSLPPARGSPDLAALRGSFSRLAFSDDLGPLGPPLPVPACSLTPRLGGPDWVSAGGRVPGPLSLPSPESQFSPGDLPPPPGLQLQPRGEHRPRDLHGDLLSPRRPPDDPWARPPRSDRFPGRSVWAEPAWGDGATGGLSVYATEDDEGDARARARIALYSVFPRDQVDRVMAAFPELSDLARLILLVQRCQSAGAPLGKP
# UniProt Q8TCF1: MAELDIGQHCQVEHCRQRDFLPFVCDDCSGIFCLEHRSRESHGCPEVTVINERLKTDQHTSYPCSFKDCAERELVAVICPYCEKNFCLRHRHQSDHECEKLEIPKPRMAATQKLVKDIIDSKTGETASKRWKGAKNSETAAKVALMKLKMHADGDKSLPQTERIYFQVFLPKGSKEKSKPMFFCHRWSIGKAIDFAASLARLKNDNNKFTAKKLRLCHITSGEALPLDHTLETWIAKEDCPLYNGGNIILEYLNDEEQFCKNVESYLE
# UniProt P27348: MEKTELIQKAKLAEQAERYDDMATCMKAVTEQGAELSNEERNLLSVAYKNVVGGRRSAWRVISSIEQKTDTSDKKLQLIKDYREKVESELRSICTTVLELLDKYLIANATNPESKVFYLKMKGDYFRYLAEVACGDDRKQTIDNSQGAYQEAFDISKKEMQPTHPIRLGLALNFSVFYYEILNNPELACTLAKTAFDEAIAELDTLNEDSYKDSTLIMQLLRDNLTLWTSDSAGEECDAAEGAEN
# Some of the results follow.
# Compound: Cc1cc(ccc1-c1ccccc1)C(=O)N1CCCN(CC1)C(=O)CCl [compound 10]
# Assay: probe-labelled cysteine peptide fold change vs DMSO (competition) (log2 fold change); higher = less target engagement (more negative = stronger competition)
# Details: THP-1, incubation time: 4 h
# 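Note: competitive profiling in live THP-1 cells: cysteine peptides tagged with an iodoacetamide desthiobiotin (IA-DTB) probe, intensity after compound treatment relative to DMSO-treated cells.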
Target,probe-labelled cysteine peptide fold change (10 µM),probe-labelled cysteine peptide fold change (50 µM)
ZC3H14_Q6PJT7_613_NGDECAYHHPISPCK (UniProt Q6PJT7),0.136,0.16
ZC3H7B_Q9UGR2_909_CAHGQEELNEWLDRR (UniProt Q9UGR2),-0.0432,-0.228
XRCC1_P18887_362_DSTHLICAFANTPK (UniProt P18887),-0.168,-0.146
XPO7_Q9UIA9_66_GSSSYSQLLAATCLTK (UniProt Q9UIA9),0.148,0.231
ZC3H11A_O75152_588_GDVASCNTQVAEK (UniProt O75152),-0.233,0.19
ZC3HAV1_Q7Z2W4_513_VDDHDSEEICLDHLCK (UniProt Q7Z2W4),0.0207,-0.396
ZEB2_O60315_583_MIENHNISTPFSCQFCK (UniProt O60315),-0.236,-0.182
YDJC_A8MPS7_18_LVVTADDFGYCPR (UniProt A8MPS7),0.0274,-0.245
ZDHHC13_Q8IUH4_51_EALPLIEDSSNCDIVK (UniProt Q8IUH4),-0.351,-0.0596
ZC3HAV1L_Q96H79_121_DCWSTCTLSHDIHTPVNMQVLK (UniProt Q96H79),0.000846,-0.495
XRCC5_P13010_249_HSIHWPCR (UniProt P13010),0.0754,0.257
YY1_P25490_390_IHTGDRPYVCPFDGCNK (UniProt P25490),0.136,0.715
YWHAH_Q04917_97_ELETVCNDVLSLLDK (UniProt Q04917),0.0168,-0.0243
XRCC5_P13010_339_CFSVLGFCK (UniProt P13010),-0.192,-0.088
XPO6_Q96QU8_886_EQLAESILHEGSTGCR (UniProt Q96QU8),-0.217,0.331
ZC3HAV1_Q7Z2W4_96_CNYSQSER (UniProt Q7Z2W4),0.0615,-0.122
ZFC3H1_O60293_1141_TMEVKPCPFRPYHSPLLVFK (UniProt O60293),-0.204,-0.16
ZCCHC3_Q9NUD5_356_CGEEGHLSPYCR (UniProt Q9NUD5),0.312,0.342
ZC3H12D_A2A288_260_KPKPPEPSWQHCPYGK (UniProt A2A288),0.0532,-0.227
ZFAND1_Q8TCF1_25_DFLPFVCDDCSGIFCLEHR (UniProt Q8TCF1),0.246,0.0429
ZC3H12D_A2A288_111_ETFSCR (UniProt A2A288),-0.109,-0.65
ZBTB44_Q8NCP5_31_NDGHFCDITIR (UniProt Q8NCP5),0.224,0.393

Target,probe-labelled cysteine peptide fold change (10 µM),probe-labelled cysteine peptide fold change (50 µM)
XRCC3_O43542_310_LREEEAALGCPAR (UniProt O43542),-0.161,-0.408
ZC3H7B_Q9UGR2_617_QFQEHFQFDVCR (UniProt Q9UGR2),0.128,0.388
YEATS2_Q9ULM3_565_QEDSLFASMPPLCPIGSHPK (UniProt Q9ULM3),-0.301,-0.418
XPO7_Q9UIA9_1038_QQAMHLCFENLMEGIER (UniProt Q9UIA9),0.0781,0.203
ZC3H11A_O75152_588_SVLTPLRGDVASCNTQVAEK (UniProt O75152),-0.0147,0.00571
ZCRB1_Q8TBF4_67_DSAQNCTR (UniProt Q8TBF4),-0.11,0.0217
YDJC_A8MPS7_294_AQLAQDGVQLCALDDLDSK (UniProt A8MPS7),-0.515,0.0842
ZC3H14_Q6PJT7_641_CLFVHPNCK (UniProt Q6PJT7),0.151,-0.0994
YWHAB_P31946_191_ACSLAK (UniProt P31946),-0.00672,-0.176
XRCC5_P13010_493_LFQCLLHR (UniProt P13010),-0.18,0.0388
ZC3HAV1L_Q96H79_7_AEPTVCSFLTK (UniProt Q96H79),0.0522,-0.401
XPO5_Q9HAV4_941_SLLCGEDEAADENPESQEMLEEQLVR (UniProt Q9HAV4),-0.239,-0.228
XRN1_Q8IZH2_657_ALYFCGFPTLK (UniProt Q8IZH2),-0.16,0.169
ZC3H11A_O75152_80_LNCAFHHNR (UniProt O75152),0.0566,-0.191
ZFAND1_Q8TCF1_10_AELDIGQHCQVEHCR (UniProt Q8TCF1),0.314,-0.0496
ZFAND6_Q6FIF0_181_YSDVHNCSYNYK (UniProt Q6FIF0),-0.0333,-0.236
XPO4_Q9C0E2_492_IAAEHCIPLLTSLLEER (UniProt Q9C0E2),0.012,0.2
ZDHHC5_Q9C0B5_245_VLCSSPAPR (UniProt Q9C0B5),0.0101,-0.0764
XRCC5_P13010_157_KCDISLQFFLPFSLGKEDGSGDRGDGPFR (UniProt P13010),-0.0168,-0.586
ZFAND1_Q8TCF1_10+15_AELDIGQHCQVEHCR (UniProt Q8TCF1),-0.155,0.254
YWHAQ_P27348_134_YLAEVACGDDR (UniProt P27348),-0.0267,0.185

# For convenience, some entries already given:
Target,probe-labelled cysteine peptide fold change (10 µM),probe-labelled cysteine peptide fold change (50 µM)
XRCC5_P13010_157_KCDISLQFFLPFSLGKEDGSGDRGDGPFR (UniProt P13010),-0.0168,-0.586
ZFAND1_Q8TCF1_10+15_AELDIGQHCQVEHCR (UniProt Q8TCF1),-0.155,0.254
YWHAQ_P27348_134_YLAEVACGDDR (UniProt P27348),-0.0267,0.185
